PubChem BioAssay AID624297 (National Center for Advancing Translational Sciences (NCATS), 2012)
In all, about 340,000 compounds went through this assay and about 6,200 (1.8%) were called active. This list was built around the results that the source calls inconclusive (neither active nor inactive); the mix of calls is not that of the screen. Calls come from the whole dose curve; as a rule, active = well fitted activation curve with a large enough effect; inconclusive = small, poorly fitted or top-dose-only effect; inactive = no such curve, though single readings can be large or run the other way. Potencies of inconclusive entries are doubtful fits and often do not repeat.

Test: A quantitative high throughput screen for small molecules that induce DNA re-replication in SW480 colon adenocarcinoma cells. For re-replication activation: % of control where 0% means no effect. Note: nearly all actives have a fitted effect of over 55% in size.
Conditions: Hoechst DNA content imaging, 48 h; re-replication activation: at 46.1 µM (top of the series)
Summary of the method: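 Per well, 250 cells were exposed to pinned compound for 48 hr. Nuclear DNA was visualised with Hoechst (40 min, 37 C) and total object intensity recorded by fluorescence scanning.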
Potency is the fitted concentration of half-maximal effect.

| Compound | Potency | re-replication activation |
| --- | --- | --- |
| Cc1ccc(OCCN2C(=O)c3ccccc3C2=O)c([N+](=O)[O-])c1 | inconclusive: 11.6 µM [activator, single point] |  |
| O=S(=O)([N-]c1nc2ccccc2nc1-[n+]1ccc(Cc2ccccc2)cc1)c1ccc(Br)s1 | inconclusive: 13 µM [activator, single point] |  |
| COc1ccc(C(=O)N/N=C/c2ccc(OC(=O)c3ccccc3)cc2)cc1 | inactive |  |
| COc1ccc(CCNc2oc(Cc3ccccc3)nc2C#N)cc1OC | inconclusive: 23.1 µM [activator, single point] |  |
| O=C(Nc1cccc(NC(=O)C2CCCO2)c1)c1ccco1 (centres undefined) | inactive |  |
| CCN(C(=O)CSc1nccc(=O)[nH]1)C1CCCCC1 | inactive |  |
| CC(C)(C)c1ccc(OCCCC(=O)NNC(=O)c2ccccc2O)cc1 | inconclusive: 14.6 µM [activator, single point] |  |
| COc1ccc(C)cc1NC(=O)C(Sc1nnc(-c2ccncc2)n1-c1ccc(Cl)cc1)c1ccccc1 (centres undefined) | inconclusive: 14.6 µM [activator, partial curve, poor fit] |  |
| O=C(Nc1ccc(-c2csnn2)cc1)C1CC1 | inconclusive: 16.4 µM [activator, single point] |  |
| COc1c(Cl)cc(Cl)cc1C(=O)Nc1ccc(C(=O)O)cc1 | inconclusive: 29.1 µM [activator, partial curve, poor fit] |  |
| Fc1cccc2sc(Nc3nc4c(F)cccc4s3)nc12 | inactive |  |
| O=C(CSc1nc2cc(C(F)(F)F)ccc2n1Cc1ccccc1)NC1CCS(=O)(=O)C1 (centres undefined) | inconclusive: 32.6 µM [activator, partial curve, poor fit] |  |
| O=C(Nc1ccc2c(c1)OCCO2)N1CCOCC1 | inconclusive: 6.51 µM [activator, single point] |  |
| O=C(O)c1ccc(CSc2nc3ccc(NC(=O)c4ccccc4C(=O)O)cc3s2)cc1 | inconclusive: 5.17 µM [activator, single point] |  |
| CC(=O)C(N=Nc1ccccc1)(Sc1nnc(-c2ccccc2)n1-c1ccccc1)C(C)=O | inconclusive: 23.1 µM [activator, partial curve, poor fit] |  |
| N=c1n(CCO)c2ccccc2n1Cc1ccc(Cl)cc1 | inactive |  |
| O=C(NC1CCN(Cc2nnnn2CCc2ccccc2)CC1)c1ccccc1F | inactive |  |
| CCOC(=O)Cc1cnc(NC(=O)CSc2nc(N)cc(=O)[nH]2)s1 | inconclusive: 6.51 µM [activator, partial curve, poor fit] |  |
| COc1ccc(C2Oc3ccccc3C3=C2C(c2cccs2)n2ncnc2N3)cc1 (centres undefined) | inconclusive: 29.1 µM [activator, single point] |  |
| OCC1(Cc2ccccc2)CCCN(C2CCCC2)C1 (centres undefined) | inconclusive: 0.13 µM [activator, full curve, poor fit] |  |
| COc1cc(-c2nnc(SCC(=O)Nc3ccc4c(c3)OCCO4)o2)cc(OC)c1OC | inactive |  |
| COCC(=O)NC1(c2nnnn2CCOC(=O)Nc2ccc(Cl)cc2)CCCCC1 | inactive |  |

| Compound | Potency | re-replication activation |
| --- | --- | --- |
| Cc1nn(-c2ccccc2)c2c1C(c1ccc(O)c(O)c1)N1C(=N2)C(Nc2ccccc2)=Nc2ccccc21 (centres undefined) | inconclusive: 18.4 µM [activator, single point] |  |
| Cc1cccc(COc2ccc(/C=N/NC(=O)c3nnn(-c4nonc4N)c3COc3ccc(F)cc3)cc2)c1 | inconclusive: 23.1 µM [activator, single point] |  |
| Cc1nnsc1C(=O)N/N=C/c1ccc(OC(F)(F)F)cc1 | inconclusive: 20.6 µM [activator, partial curve, poor fit] |  |
| CCN1C(=O)C2(C(C#N)=C(N)Oc3n[nH]c(-c4ccc(Cl)cc4)c32)c2ccccc21 (centres undefined) | inconclusive: 16.4 µM [activator, partial curve] |  |
| NC(=O)CC(NC(=O)c1ccc(Br)cc1)c1ccc(NC2CCCCCC2)c([N+](=O)[O-])c1 (centres undefined) | inactive |  |
| Cc1scc(C(=O)N2CCN(c3ccc(Cl)cc3)CC2)c1C | inactive |  |
| Cc1ccc(OCC(=O)c2ccc(Cl)s2)c([N+](=O)[O-])n1 | inconclusive: 29.1 µM [activator, single point] |  |
| CC(=O)N(C)c1ccc(OCC(O)Cn2c(C)nc3ccccc32)cc1 (centres undefined) | inconclusive: 20.6 µM [activator, single point] |  |
| O=C(c1cc2nc(-c3ccccc3)cc(-c3ccccc3)n2n1)N1CCN(C(=O)c2ccco2)CC1 | inactive |  |
| c1ccc(CNc2nc3ccccc3[nH]2)cc1 | inconclusive: 16.4 µM [activator, partial curve, poor fit] |  |
| COc1ccc(CN2CCCC(CNC(=O)c3ccc(F)cc3)C2)cc1OC (centres undefined) | inconclusive: 4.61 µM [activator, single point] |  |
| Cc1ccccc1N1C(=O)C(Cc2ccc(F)cc2)S/C1=C(\C#N)C(N)=O (centres undefined) | inconclusive: 0.651 µM [activator, partial curve, poor fit] |  |
| COc1cc(/C=N/NS(=O)(=O)c2ccc(Br)cc2)ccc1O | inconclusive: 0.92 µM [activator, full curve] |  |
| CC(=O)Oc1ccc(N2C(=O)C3C4C=CC(O4)C3C2=O)cc1 (centres undefined) | inactive |  |
| Clc1ccccc1C1=Nn2c(nnc2-c2ccncc2)SC1 | inactive |  |
| CCN(Cc1ccccc1)C(=O)c1ccc(NC(=O)c2ccc(OC)cc2)cc1 | inactive |  |
| COc1cc(C)c(COc2ncnc3ccccc23)cc1OC | inactive |  |
| CC(C)CN(C(=O)Cn1c(C(F)(F)F)nc2ccccc21)c1c(N)n(Cc2ccccc2)c(=O)[nH]c1=O | inactive |  |
| COc1ccc(-c2nnc(N3CCOCC3)c3ccccc23)cc1 |  | inconclusive: 36.8% [activator] |
| CCOc1ccc(CCNC(=O)c2ccc(OCc3c(C)noc3C)cc2)cc1OCC | inconclusive: 0.0041 µM [activator, full curve, poor fit] |  |
| CCOC(=O)C(=O)Nc1ccc(S(=O)(=O)Nc2nccs2)cc1 |  | inconclusive: 62.3% [activator] |
| O=C(Cn1cnc2c(nnn2Cc2ccc(F)cc2)c1=O)Nc1ccc2c(c1)OCCO2 | inconclusive: 23.1 µM [activator, single point] |  |

Some of these compounds in order of formula weight, descending:

| Compound | Potency | re-replication activation |
| --- | --- | --- |
| Cc1ccccc1N1C(=O)C(Cc2ccc(F)cc2)S/C1=C(\C#N)C(N)=O (centres undefined) | inconclusive: 0.651 µM [activator, partial curve, poor fit] |  |
| Cc1nnsc1C(=O)N/N=C/c1ccc(OC(F)(F)F)cc1 | inconclusive: 20.6 µM [activator, partial curve, poor fit] |  |
| Cc1ccc(OCC(=O)c2ccc(Cl)s2)c([N+](=O)[O-])n1 | inconclusive: 29.1 µM [activator, single point] |  |
